# Laboratory results: PubChem BioAssay AID1259405 (NCATS, 2018)
# Aim: 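Silenced genes that increase secreted GFP made by CHO cells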 (primary screen)
# Cell system: Chinese hamster CHO-K1 ovary cells with stable secreted eGFP expression
# Reagents: single siRNA against mouse genes, 0.8 pmol siRNA per well (2 µl of 400 nM stock)
# Time to read-out: 3 days
# Detection: 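Percent of the per-plate non-targeting control median for intracellular GFP per well by laser scanning cytometry and for cell viability by ATP luminescence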
# Direction: GFP, % of control: higher = more GFP per well, higher productivity; viability (ATP), % of control: higher = more viable cells (more ATP)
# Active means: 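Called active when intracellular GFP, relative to negative control, is at or above 120%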
# The whole screen tested about 50,000 reagents; this is a random part of them. In the full data, about 4,000 (8%) are marked active. 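Mouse siRNA library applied to hamster cells; one well for each siRNA.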 Entries without a mark were called inactive.
Target gene,PubChem SID,"GFP, % of control","viability (ATP), % of control"
Nkx6-1,SID363568969,52.1,74.8
Nkx6-1,SID363583401,46.6,57.3
Desi2,SID363552310,69.6,61.2
Desi2,SID363585446,102,92.6
Desi2,SID363585797,108,104
Pld2,SID363569559,92.5,80.7
Pld2,SID363577303,80,79.9
Pld2,SID363578711,83,92.1
Hyal6,SID363544349,80.1,98.5
Hyal6,SID363550677,84.5,119
Hyal6,SID363557226,94.6,105
Als2,SID363545712,79.4,89.5
Als2,SID363549225,76.8,105
Als2,SID363563031,54.4,78.6
Crisp1,SID363550128,96.5,82.9
Crisp1,SID363564637,86.6,108
Crisp1,SID363588182,92,122
Ets1,SID363541552,76.2,112
Ets1,SID363556179,69,59.6
Ets1,SID363566468,52.7,70.8
Itga5,SID363573429,69.2,71.3
Itga5,SID363588668,113,92.5
Phf13,SID363554604,35.3,22
Phf13,SID363568051,54.3,72.6
Phf13,SID363586110,91.9,126
Mertk,SID363571007,103,102
Terf2,SID363569117,93,75.5
Terf2,SID363583549,82.7,79.3
Adcy1,SID363573065,77,62.7
Adcy1,SID363577641,77.8,78.9
Adcy1,SID363581161,72.8,96.6
Prps2,SID363547288,82.1,83.4
Prps2,SID363558057,67.3,61.6
Prps2,SID363559815,87.2,84.4
Mark1,SID363572369,35.4,54
Mark1,SID363574129,72.5,76.9
Them5,SID363540626,70.2,74.8
Them5,SID363543077,49,90.8
Them5,SID363552570,60.8,55
Tbx22,SID363573615,77.2,84
Tbx22,SID363581359,83,66.3
Tbx22,SID363583823,107,102
AU022252,SID363546768,89.4,63
AU022252,SID363548524,117,110
AU022252,SID363560702,78.3,72.2
Atp12a,SID363569920,112,122
Atp12a,SID363576960,64.6,55.2
Atp12a,SID363578368,76.1,59.2
Serpinb7,SID363573089,80.8,92.2
Serpinb7,SID363577665,65.9,82.5
Serpinb7,SID363581185,41.5,44.7
Pigk,SID363570704,96.9,105
Pigk,SID363579504,105,156
Pigk,SID363583376,82.3,102
Brd4,SID363546097,66.1,49.1
Brd4,SID363549610,55.8,16.1
Brd4,SID363563416,52,46
Fam91a1,SID363547191,91.1,83.6
Fam91a1,SID363550003,78.9,76.2
Fam91a1,SID363588057,125 (active),127
Ssrp1,SID363569066,74.3,69.6
Ssrp1,SID363583498,114,95.4
Use1,SID363543653,71.5,54
Use1,SID363553146,74.5,29.1
Use1,SID363558994,103,72.9
Ppp1r3a,SID363575261,70.7,71
Ppp1r3a,SID363580893,36.6,66.8
Ppp1r3a,SID363583005,88.5,79.3
Vmn1r230,SID363544977,62.7,46.1
Vmn1r230,SID363551305,83.1,71
Vmn1r230,SID363557854,51.3,89.5
Pla2g7,SID363584538,85.6,71.6
Pla2g7,SID363589568,203 (active),159
Pccb,SID363572580,85.4,57.6
Pccb,SID363577860,90.2,62.5
Pccb,SID363582084,126 (active),103
Thoc1,SID363556521,44.5,67.9
Thoc1,SID363586971,40.5,81.7
Thoc1,SID363589079,70.7,149
Ces2e,SID363545747,86.2,84.6
Ces2e,SID363549260,116,96
Ces2e,SID363563066,70.5,87
Tgm2,SID363570548,89.3,64
Tgm2,SID363579348,72.9,74.3
Tgm2,SID363583220,82.1,87

Ordered by “GFP, % of control” (lowest first): some entries from above
Target gene,PubChem SID,"GFP, % of control","viability (ATP), % of control"
Nkx6-1,SID363583401,46.6,57.3
Nkx6-1,SID363568969,52.1,74.8
Desi2,SID363552310,69.6,61.2
Pld2,SID363577303,80,79.9
Hyal6,SID363544349,80.1,98.5
Pld2,SID363578711,83,92.1
Pld2,SID363569559,92.5,80.7
Desi2,SID363585446,102,92.6
Desi2,SID363585797,108,104
